Results are given in words; binding and its absence hold for the method and conditions named. In cells and extracts the contact can be indirect. Some entries that bind do so weakly or less than the wild type. For some of these results: Where a sequence is shown, tags or fusion partners need not be part of it.
Experiments:
[1] = target: T1, Flag-tagged p45 (mouse) (UniProt Q8CJ26); assay: co-IP; HEK293 cells with Flag-p45 and V5-tagged FADD constructs; lysis in RIPA buffer (150 mM NaCl, 1% NP-40, 0.5% DOC, 0.1% SDS, 50 mM Tris pH 8.0); immunoprecipitated with anti-Flag M2, blotted with anti-V5
T1 sequence: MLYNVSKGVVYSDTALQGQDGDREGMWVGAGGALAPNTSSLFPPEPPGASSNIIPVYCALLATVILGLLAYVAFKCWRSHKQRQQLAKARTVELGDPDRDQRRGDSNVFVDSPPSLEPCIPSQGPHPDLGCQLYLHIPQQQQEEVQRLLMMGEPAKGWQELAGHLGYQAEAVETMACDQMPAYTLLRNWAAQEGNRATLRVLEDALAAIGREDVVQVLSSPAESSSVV

[2] = target: T2, p45 of Thy1-p45 transgenic mice (full-length mouse p45 with an N-terminal Flag tag) (mouse) (UniProt Q8CJ26); assay: co-IP; brain protein extracts of Thy1-p45 transgenic mice; immunoprecipitated with anti-p45 or anti-FADD, blotted with anti-FADD or anti-p45, respectively
T2 sequence: T1 sequence

[3] = target: T2, p45 of Thy1-p45 transgenic mice (full-length mouse p45 with an N-terminal Flag tag) (mouse); assay: co-IP; data not shown; spinal cord extracts, otherwise as for the brain extracts
[4] = target: T3, human Fas in MCF7-hFAS cells (human), P25445; assay: co-IP; MCF7-hFAS-CTL and MCF7-hFAS-p45 cells treated with FasL (10 ng/ml) for 0 or 30 min; lysates immunoprecipitated with anti-Fas, blotted with anti-caspase-8; settings: remark: other sources report otherwise
T3 chain: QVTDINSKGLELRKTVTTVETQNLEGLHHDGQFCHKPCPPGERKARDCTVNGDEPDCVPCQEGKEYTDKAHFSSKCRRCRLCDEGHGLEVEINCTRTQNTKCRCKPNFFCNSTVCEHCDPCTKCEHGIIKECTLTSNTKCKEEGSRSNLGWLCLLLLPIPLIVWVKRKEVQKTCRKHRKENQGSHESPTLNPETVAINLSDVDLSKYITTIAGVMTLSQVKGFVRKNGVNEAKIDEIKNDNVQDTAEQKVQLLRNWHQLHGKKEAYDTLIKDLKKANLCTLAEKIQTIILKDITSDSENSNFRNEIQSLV

B1: V5-tagged full length FADD (mouse, WT) (protein, UniProt Q61160 1-205)
chain: MDPFLVLLHSLSGSLSGNDLMELKFLCRERVSKRKLERVQSGLDLFTVLLEQNDLERGHTGLLRELLASLRRHDLLQRLDDFEAGTATAAPPGEADLQVAFDIVCDNVGRDWKRLARELKVSEAKMDGIEEKYPRSLSERVRESLKVWKNAEKKNASVAGLVKALRTCRLNLVADLVEEAQESVSKSENMSPVLRDSTVSSSETP
**Q.** B1 was tested. Which binding [1] did it give?
**A.** binds

B2: FADD in mouse brain and spinal cord extracts (protein, UniProt Q61160 1-205)
chain: B1 chain
**Q.** For B2, which binding [2] is on record?
**A.** binds

**Q.** What about the binding [3] of the same binder?
**A.** binds

B3: caspase-8 in MCF7-hFAS cells, Q14790 1-479 (enzyme)
chain: MDFSRNLYDIGEQLDSEDLASLKFLSLDYIPQRKQEPIKDALMLFQRLQEKRMLEESNLSFLKELLFRINRLDLLITYLNTRKEEMERELQTPGRAQISAYRVMLYQISEEVSRSELRSFKFLLQEEISKCKLDDDMNLLDIFIEMEKRVILGEGKLDILKRVCAQINKSLLKIINDYEEFSKERSSSLEGSPDEFSNGEELCGVMTISDSPREQDSESQTLDKVYQMKSKPRGYCLIINNHNFAKAREKVPKLHSIRDRNGTHLDAGALTTTFEELHFEIKPHDDCTVEQIYEILKIYQLMDHSNMDCFICCILSHGDKGIIYGTDGQEAPIYELTSQFTGLKCPSLAGKPKVFFIQACQGDNYQKGIPVETDSEEQPYLEMDLSSPQTRYIPDEADFLLGMATVNNCVSYRNPAEGTWYIQSLCQSLRERCPRGDDILTILTEVNYEVSNKDDKKNMGKQMPQPTFTLRKKLVFPSD
**Q.** For B3, which binding [4] is on record?
**A.** binds

Reference: paper PMC3720591
